Counter-ions that a name gives are not always drawn. This is one part of the list. Repeats in this data set agree poorly, so a single value says little.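 FDA-approved drugs were each paired with colistin at one-eighth its MIC and screened against a multidrug-resistant, mcr-1-positive clinical E. coli isolate, with OD600 read after 24 h. Drug-free bacteria served as growth control, plain broth as blank. Combinations were active if OD600 dropped below 0.2.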

The experiment has as its system Escherichia coli 42 (mcr-1-positive clinical isolate). As to the kind of experiment: OD600 after 24 h growth with compound plus colistin (absorbance units (OD600)); higher = more bacterial growth (less inhibition). To be noted: first compound 25 µM; colistin concentration 0.5 ug/mL; incubation time 24 h; 37 °C.
Take `Cc1oncc1C(=O)Nc1ccc(C(F)(F)F)cc1` [Leflunomide] + CCC(C)CCCC(=O)N[C@@H](CCN)C(=O)N[C@H](C(=O)N[C@@H](CCN)C(=O)N[C@H]1CCNC(=O)[C@H]([C@@H](C)O)NC(=O)[C@H](CCN)NC(=O)[C@H](CCN)NC(=O)[C@H](CC(C)C)NC(=O)[C@@H](CC(C)C)NC(=O)[C@H](CCN)NC1=O)[C@@H](C)O [colistin]: the OD600 is inactive: 1.07. The result for `CN(C)CCc1c[nH]c2ccc(C[C@H]3COC(=O)N3)cc12` [Zolmitriptan] + CCC(C)CCCC(=O)N[C@@H](CCN)C(=O)N[C@H](C(=O)N[C@@H](CCN)C(=O)N[C@H]1CCNC(=O)[C@H]([C@@H](C)O)NC(=O)[C@H](CCN)NC(=O)[C@H](CCN)NC(=O)[C@H](CC(C)C)NC(=O)[C@@H](CC(C)C)NC(=O)[C@H](CCN)NC1=O)[C@@H](C)O [colistin] reads inactive: 1.13; that for `O=C1Cc2cc(CCN3CCN(c4nsc5ccccc45)CC3)c(Cl)cc2N1` [Ziprasidone hydrochloride] + CCC(C)CCCC(=O)N[C@@H](CCN)C(=O)N[C@H](C(=O)N[C@@H](CCN)C(=O)N[C@H]1CCNC(=O)[C@H]([C@@H](C)O)NC(=O)[C@H](CCN)NC(=O)[C@H](CCN)NC(=O)[C@H](CC(C)C)NC(=O)[C@@H](CC(C)C)NC(=O)[C@H](CCN)NC1=O)[C@@H](C)O [colistin], inactive: 0.672. In the case of `COc1nc2ccc(Br)cc2cc1[C@@H](c1ccccc1)[C@@](O)(CCN(C)C)c1cccc2ccccc12` [Bedaquiline] + CCC(C)CCCC(=O)N[C@@H](CCN)C(=O)N[C@H](C(=O)N[C@@H](CCN)C(=O)N[C@H]1CCNC(=O)[C@H]([C@@H](C)O)NC(=O)[C@H](CCN)NC(=O)[C@H](CCN)NC(=O)[C@H](CC(C)C)NC(=O)[C@@H](CC(C)C)NC(=O)[C@H](CCN)NC1=O)[C@@H](C)O [colistin], the OD600 was inactive: 0.947. With `Cc1ccc(N(CC2=NCCN2)c2cccc(O)c2)cc1` [Phentolamine mesylate] + CCC(C)CCCC(=O)N[C@@H](CCN)C(=O)N[C@H](C(=O)N[C@@H](CCN)C(=O)N[C@H]1CCNC(=O)[C@H]([C@@H](C)O)NC(=O)[C@H](CCN)NC(=O)[C@H](CCN)NC(=O)[C@H](CC(C)C)NC(=O)[C@@H](CC(C)C)NC(=O)[C@H](CCN)NC1=O)[C@@H](C)O [colistin], the OD600 is inactive: 1.05. `O=C(O)C[C@H](O)C[C@H](O)/C=C/c1c(C2CC2)nc2ccccc2c1-c1ccc(F)cc1` [Pitavastatin calcium] + CCC(C)CCCC(=O)N[C@@H](CCN)C(=O)N[C@H](C(=O)N[C@@H](CCN)C(=O)N[C@H]1CCNC(=O)[C@H]([C@@H](C)O)NC(=O)[C@H](CCN)NC(=O)[C@H](CCN)NC(=O)[C@H](CC(C)C)NC(=O)[C@@H](CC(C)C)NC(=O)[C@H](CCN)NC1=O)[C@@H](C)O [colistin]: the OD600 is inactive: 1.01. With `CN(C)C/C=C/C(=O)Nc1cc2c(Nc3ccc(F)c(Cl)c3)ncnc2cc1O[C@H]1CCOC1` [Afatinib] + CCC(C)CCCC(=O)N[C@@H](CCN)C(=O)N[C@H](C(=O)N[C@@H](CCN)C(=O)N[C@H]1CCNC(=O)[C@H]([C@@H](C)O)NC(=O)[C@H](CCN)NC(=O)[C@H](CCN)NC(=O)[C@H](CC(C)C)NC(=O)[C@@H](CC(C)C)NC(=O)[C@H](CCN)NC1=O)[C@@H](C)O [colistin] the figure was inactive: 0.926. Take `CCCCc1nc(Cl)c(CO)n1Cc1ccc(-c2ccccc2-c2nnn[nH]2)cc1` [Losartan potassium] + CCC(C)CCCC(=O)N[C@@H](CCN)C(=O)N[C@H](C(=O)N[C@@H](CCN)C(=O)N[C@H]1CCNC(=O)[C@H]([C@@H](C)O)NC(=O)[C@H](CCN)NC(=O)[C@H](CCN)NC(=O)[C@H](CC(C)C)NC(=O)[C@@H](CC(C)C)NC(=O)[C@H](CCN)NC1=O)[C@@H](C)O [colistin]: the OD600 was inactive: 1.14.

`O=c1[nH]cnc2c1ncn2[C@H]1CC[C@@H](CO)O1` [Didanosine] + CCC(C)CCCC(=O)N[C@@H](CCN)C(=O)N[C@H](C(=O)N[C@@H](CCN)C(=O)N[C@H]1CCNC(=O)[C@H]([C@@H](C)O)NC(=O)[C@H](CCN)NC(=O)[C@H](CCN)NC(=O)[C@H](CC(C)C)NC(=O)[C@@H](CC(C)C)NC(=O)[C@H](CCN)NC1=O)[C@@H](C)O [colistin]: the OD600 is inactive: 0.677. With `N[C@H]1CONC1=O` [L-Cycloserine] + CCC(C)CCCC(=O)N[C@@H](CCN)C(=O)N[C@H](C(=O)N[C@@H](CCN)C(=O)N[C@H]1CCNC(=O)[C@H]([C@@H](C)O)NC(=O)[C@H](CCN)NC(=O)[C@H](CCN)NC(=O)[C@H](CC(C)C)NC(=O)[C@@H](CC(C)C)NC(=O)[C@H](CCN)NC1=O)[C@@H](C)O [colistin], the OD600 was inactive: 1.11. In the case of `CO[C@@H]1[C@@H](OC(N)=O)[C@@H](O)[C@H](Oc2ccc3c(O)c(NC(=O)c4ccc(O)c(CC=C(C)C)c4)c(=O)oc3c2C)OC1(C)C` [Novobiocin Sodium] + CCC(C)CCCC(=O)N[C@@H](CCN)C(=O)N[C@H](C(=O)N[C@@H](CCN)C(=O)N[C@H]1CCNC(=O)[C@H]([C@@H](C)O)NC(=O)[C@H](CCN)NC(=O)[C@H](CCN)NC(=O)[C@H](CC(C)C)NC(=O)[C@@H](CC(C)C)NC(=O)[C@H](CCN)NC1=O)[C@@H](C)O [colistin], the OD600 is active: 0.038. As for `CCN[C@H]1C[C@H](C)S(=O)(=O)c2sc(S(N)(=O)=O)cc21` [Dorzolamide hydrochloride] + CCC(C)CCCC(=O)N[C@@H](CCN)C(=O)N[C@H](C(=O)N[C@@H](CCN)C(=O)N[C@H]1CCNC(=O)[C@H]([C@@H](C)O)NC(=O)[C@H](CCN)NC(=O)[C@H](CCN)NC(=O)[C@H](CC(C)C)NC(=O)[C@@H](CC(C)C)NC(=O)[C@H](CCN)NC1=O)[C@@H](C)O [colistin], the OD600 is inactive: 0.993. With `CN(C)CCN(Cc1ccccc1)c1ccccn1` [Tripelennamine hydrochloride] + CCC(C)CCCC(=O)N[C@@H](CCN)C(=O)N[C@H](C(=O)N[C@@H](CCN)C(=O)N[C@H]1CCNC(=O)[C@H]([C@@H](C)O)NC(=O)[C@H](CCN)NC(=O)[C@H](CCN)NC(=O)[C@H](CC(C)C)NC(=O)[C@@H](CC(C)C)NC(=O)[C@H](CCN)NC1=O)[C@@H](C)O [colistin], the OD600 is inactive: 1.14. With `CCN(CC)C(=S)SSC(=S)N(CC)CC` [Disulfiram] + CCC(C)CCCC(=O)N[C@@H](CCN)C(=O)N[C@H](C(=O)N[C@@H](CCN)C(=O)N[C@H]1CCNC(=O)[C@H]([C@@H](C)O)NC(=O)[C@H](CCN)NC(=O)[C@H](CCN)NC(=O)[C@H](CC(C)C)NC(=O)[C@@H](CC(C)C)NC(=O)[C@H](CCN)NC1=O)[C@@H](C)O [colistin], the OD600 was inactive: 0.407. `OCCN1C[C@H](O)[C@@H](O)[C@H](O)[C@H]1CO` [Miglitol] + CCC(C)CCCC(=O)N[C@@H](CCN)C(=O)N[C@H](C(=O)N[C@@H](CCN)C(=O)N[C@H]1CCNC(=O)[C@H]([C@@H](C)O)NC(=O)[C@H](CCN)NC(=O)[C@H](CCN)NC(=O)[C@H](CC(C)C)NC(=O)[C@@H](CC(C)C)NC(=O)[C@H](CCN)NC1=O)[C@@H](C)O [colistin]: the OD600 is inactive: 0.844. `CCn1cc(C(=O)O)c(=O)c2cc(F)c(N3CCNCC3)cc21` [Norfloxacin] + CCC(C)CCCC(=O)N[C@@H](CCN)C(=O)N[C@H](C(=O)N[C@@H](CCN)C(=O)N[C@H]1CCNC(=O)[C@H]([C@@H](C)O)NC(=O)[C@H](CCN)NC(=O)[C@H](CCN)NC(=O)[C@H](CC(C)C)NC(=O)[C@@H](CC(C)C)NC(=O)[C@H](CCN)NC1=O)[C@@H](C)O [colistin]: the OD600 is inactive: 0.865. On to `CCCCNc1ccc(C(=O)OCCN(C)C)cc1` [Tetracaine hydrochloride] + CCC(C)CCCC(=O)N[C@@H](CCN)C(=O)N[C@H](C(=O)N[C@@H](CCN)C(=O)N[C@H]1CCNC(=O)[C@H]([C@@H](C)O)NC(=O)[C@H](CCN)NC(=O)[C@H](CCN)NC(=O)[C@H](CC(C)C)NC(=O)[C@@H](CC(C)C)NC(=O)[C@H](CCN)NC1=O)[C@@H](C)O [colistin], for which the OD600 was inactive: 1.12. With `CC(=O)O[C@]1(C(C)=O)CC[C@H]2[C@@H]3C=C(C)C4=CC(=O)CC[C@]4(C)[C@H]3CC[C@@]21C` [Megestrol acetate] + CCC(C)CCCC(=O)N[C@@H](CCN)C(=O)N[C@H](C(=O)N[C@@H](CCN)C(=O)N[C@H]1CCNC(=O)[C@H]([C@@H](C)O)NC(=O)[C@H](CCN)NC(=O)[C@H](CCN)NC(=O)[C@H](CC(C)C)NC(=O)[C@@H](CC(C)C)NC(=O)[C@H](CCN)NC1=O)[C@@H](C)O [colistin] the figure was inactive: 1.14; with `CC#C[C@]1(O)CC[C@H]2[C@@H]3CCC4=CC(=O)CCC4=C3[C@@H](c3ccc(N(C)C)cc3)C[C@@]21C` [Mifepristone] + CCC(C)CCCC(=O)N[C@@H](CCN)C(=O)N[C@H](C(=O)N[C@@H](CCN)C(=O)N[C@H]1CCNC(=O)[C@H]([C@@H](C)O)NC(=O)[C@H](CCN)NC(=O)[C@H](CCN)NC(=O)[C@H](CC(C)C)NC(=O)[C@@H](CC(C)C)NC(=O)[C@H](CCN)NC1=O)[C@@H](C)O [colistin], inactive: 1.15.

Values taken from the supplement of paper PMC11546906.
